According to article doi:10.1101/056713:
These are yes or no findings as the source states them, for the method shown. Binding seen in cells or lysates may run through a third protein. Some binding calls cover weakened binding; strength is not graded here.

Amino acid sequences for entries named in this document (tags omitted).
UniProt Q61545: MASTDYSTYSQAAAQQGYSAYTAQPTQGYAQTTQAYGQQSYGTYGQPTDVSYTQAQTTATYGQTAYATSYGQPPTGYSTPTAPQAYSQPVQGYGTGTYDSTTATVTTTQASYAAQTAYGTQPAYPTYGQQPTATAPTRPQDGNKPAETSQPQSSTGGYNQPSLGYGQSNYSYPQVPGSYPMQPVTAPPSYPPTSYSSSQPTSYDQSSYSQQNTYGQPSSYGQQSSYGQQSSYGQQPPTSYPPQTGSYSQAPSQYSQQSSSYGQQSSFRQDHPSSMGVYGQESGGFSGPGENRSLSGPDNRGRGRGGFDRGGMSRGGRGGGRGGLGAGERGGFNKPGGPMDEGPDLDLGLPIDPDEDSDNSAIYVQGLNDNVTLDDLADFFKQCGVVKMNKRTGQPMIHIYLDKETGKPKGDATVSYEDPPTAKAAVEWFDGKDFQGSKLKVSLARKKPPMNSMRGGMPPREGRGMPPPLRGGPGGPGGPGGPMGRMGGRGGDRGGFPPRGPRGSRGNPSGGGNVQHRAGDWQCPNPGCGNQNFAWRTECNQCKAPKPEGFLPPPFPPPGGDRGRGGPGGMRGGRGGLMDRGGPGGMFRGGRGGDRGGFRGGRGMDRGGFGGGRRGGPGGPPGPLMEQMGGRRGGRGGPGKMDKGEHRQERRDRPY

How the values were obtained:
Test in all cases: co-IP
[1] = target: T1, CDYL, endogenous in mouse testis (mouse (endogenous in testis)) (UniProt Q9WTK2)
T1 sequence: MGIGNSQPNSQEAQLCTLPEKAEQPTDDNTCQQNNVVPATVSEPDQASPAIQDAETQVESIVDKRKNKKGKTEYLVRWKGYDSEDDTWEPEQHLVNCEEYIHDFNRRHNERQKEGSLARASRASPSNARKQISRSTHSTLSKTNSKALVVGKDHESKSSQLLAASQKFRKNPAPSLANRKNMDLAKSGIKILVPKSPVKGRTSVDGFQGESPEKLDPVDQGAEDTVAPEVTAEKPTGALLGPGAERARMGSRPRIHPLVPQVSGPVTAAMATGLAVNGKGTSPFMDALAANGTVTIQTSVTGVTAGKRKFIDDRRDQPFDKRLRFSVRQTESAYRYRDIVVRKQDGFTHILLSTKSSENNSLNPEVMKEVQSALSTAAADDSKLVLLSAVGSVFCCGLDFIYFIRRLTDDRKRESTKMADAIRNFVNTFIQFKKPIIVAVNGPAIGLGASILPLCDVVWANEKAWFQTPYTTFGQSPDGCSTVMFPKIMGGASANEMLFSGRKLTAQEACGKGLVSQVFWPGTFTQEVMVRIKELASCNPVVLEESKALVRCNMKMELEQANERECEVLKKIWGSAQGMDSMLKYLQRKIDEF

[2] = target: EWSR1, endogenous in mouse testis (mouse (endogenous in testis)) (UniProt Q61545)
[3] = target: T2, SYCP3, chromosomal axis/SC lateral element protein, endogenous in mouse testis (mouse (endogenous in testis)) (UniProt P70281)
T2 sequence: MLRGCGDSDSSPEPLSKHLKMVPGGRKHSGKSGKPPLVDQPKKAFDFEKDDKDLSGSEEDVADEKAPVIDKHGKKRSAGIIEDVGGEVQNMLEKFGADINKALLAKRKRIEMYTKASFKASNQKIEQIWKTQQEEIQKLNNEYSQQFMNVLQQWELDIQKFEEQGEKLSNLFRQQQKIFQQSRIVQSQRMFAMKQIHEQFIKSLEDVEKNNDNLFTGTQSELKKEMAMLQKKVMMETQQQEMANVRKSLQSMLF

binding [1]: no binding
binding [2]: binds
binding [3]: binds
B1: REC8, meiotic-specific cohesin, endogenous in mouse testis (phosphorylated form) (protein, UniProt Q8C5S7 1-591)
chain: MFYYPNVLQRHTGCFATIWLAATRGSRLVKREYLNVNVVKTCEEILNYVLVRVQPPVAGLPRPRFSLYLSAQLQIGVIRVYFQQCQYLVEDIQHILEHLHRAQLRIRIDMEEADLPSLLLPNCLAMMETLEDAPEPFFGKMSVDPRLPSPFDIPQIRHLLEAATPEKTRKETLPEATPDPRKPDRTLATVQSPEVITLQEAEPIRMLQIEGEQDLPEISRGDLELLIAEKDDAILLEERQRGRLLRQRRASLPLDESREEPRALEGAGLVSALSPPAPAQVEGIQEALPGQVFPPEVQKMTGWEPGALLTEVTPPQELRLPAPPSTEKRLPSLQRPLPRRHRRRQLLFWDKETQISREKFEEQLQTGAHCWEYPVAQPPKRMLTSPAELFRTPTLSGWLPPELLGLWTHCAQVPQRMLRQRPQLETEETVEEERAADEEERRKTEALSEIEVLREAQEPSGPLMLSSELSLEAAEDEKSRTSLIPPEWWAWSEEGQPEPPALPMLPELPEVPMEMPPRPELSSEAVLRAVALKLQANKELDFSSLVPPLSPRKLASRVFYLLLVLSTQKILLVEQQKPYGPLLIRPGPKFP
modifications: phosphorylated form, apparent mobility ~85 kDa (sites not given)
